Assay results as given in article PMC9280132.
Results are given in words; binding and its absence hold for the method and conditions named. In cells and extracts the contact can be indirect. Some entries that bind do so weakly or less than the wild type.

The chains behind the UniProt entries cited, without tags or fusion partners. Residues count along the entry.
UniProt P14618: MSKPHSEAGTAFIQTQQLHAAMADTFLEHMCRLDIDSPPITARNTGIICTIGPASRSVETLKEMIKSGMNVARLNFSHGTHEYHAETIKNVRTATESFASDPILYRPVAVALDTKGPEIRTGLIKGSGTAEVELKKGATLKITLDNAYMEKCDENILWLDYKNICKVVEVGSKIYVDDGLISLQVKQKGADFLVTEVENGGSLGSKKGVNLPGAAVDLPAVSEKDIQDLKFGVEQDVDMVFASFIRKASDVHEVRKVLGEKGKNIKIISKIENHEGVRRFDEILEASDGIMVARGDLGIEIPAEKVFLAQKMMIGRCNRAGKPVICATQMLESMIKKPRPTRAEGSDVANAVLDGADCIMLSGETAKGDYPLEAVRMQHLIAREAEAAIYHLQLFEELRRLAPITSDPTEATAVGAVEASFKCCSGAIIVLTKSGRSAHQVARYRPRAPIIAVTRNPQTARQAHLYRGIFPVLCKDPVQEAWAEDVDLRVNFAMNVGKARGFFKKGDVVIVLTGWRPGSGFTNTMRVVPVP
UniProt P11021, residues 19-654: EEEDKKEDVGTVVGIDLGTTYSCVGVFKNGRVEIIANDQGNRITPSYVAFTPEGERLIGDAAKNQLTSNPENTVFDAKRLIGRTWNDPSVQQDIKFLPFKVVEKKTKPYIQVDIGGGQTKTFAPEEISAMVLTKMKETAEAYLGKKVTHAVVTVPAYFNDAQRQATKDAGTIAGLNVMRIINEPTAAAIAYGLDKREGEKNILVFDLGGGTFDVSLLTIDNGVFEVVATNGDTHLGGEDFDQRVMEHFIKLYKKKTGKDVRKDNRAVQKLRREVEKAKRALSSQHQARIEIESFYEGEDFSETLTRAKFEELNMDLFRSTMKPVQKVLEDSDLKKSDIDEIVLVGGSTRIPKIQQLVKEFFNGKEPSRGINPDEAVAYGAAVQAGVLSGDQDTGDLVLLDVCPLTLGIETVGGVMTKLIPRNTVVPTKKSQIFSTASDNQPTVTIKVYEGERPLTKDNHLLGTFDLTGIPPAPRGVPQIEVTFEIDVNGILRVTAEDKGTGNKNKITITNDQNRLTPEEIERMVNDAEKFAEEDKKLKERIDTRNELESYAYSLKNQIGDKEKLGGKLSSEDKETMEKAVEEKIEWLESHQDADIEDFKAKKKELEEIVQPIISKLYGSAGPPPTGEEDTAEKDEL

Legend:
[1] = target: recombinant PKM2 (pyruvate kinase M2) (human) (UniProt P14618); assay: pull-down; His-tagged rPKM2 covalently coupled to CNBr-activated matrix, incubated with crude fractions of the plasma membrane of A549 cells; washed three times with Tris buffer (50 mM Tris, 150 mM NaCl, 0.5% NP40); immunoblot; only the target purified
[2] = target: GRP78 (human (endogenous in A549 and H1299)) (UniProt P11021); assay: co-IP; A549- and H1299-conditioned media incubated with anti-Hsp90α or anti-GRP78 antibody and protein G-Sepharose overnight at 4°C; washed three times with IP lysis buffer; immunoblot
[3] = target: GRP78 (human (endogenous in A549 and H1299)) (UniProt P11021); assay: co-IP; crude fractions of the plasma membrane of A549 cells treated with rPKM2, with or without rHsp90α, immunoprecipitated with IgG or anti-GRP78 antibodies; only the binder purified

In the case of GRP78 (from UniProt P11021 19-654), the binding [1] is reported as “binds”.

For “extracellular PKM2 (from UniProt P14618 1-531)”, the binding [2] was “binds”.

With “recombinant PKM2 (pyruvate kinase M2) (from UniProt P14618 1-531) (enzyme)” the binding [3] was “binds”.
